Reference: the supplement of paper PMC6411743
± gives the standard deviation of the averaged measurements. This is a selection; strong and weak results do not stand in their true shares. Small differences around the control level are noise.

Amino acid sequences for entries named in this document (tags omitted). A change or cut given only in a name is not applied to a line headed by its entry.
UniProt Q13546: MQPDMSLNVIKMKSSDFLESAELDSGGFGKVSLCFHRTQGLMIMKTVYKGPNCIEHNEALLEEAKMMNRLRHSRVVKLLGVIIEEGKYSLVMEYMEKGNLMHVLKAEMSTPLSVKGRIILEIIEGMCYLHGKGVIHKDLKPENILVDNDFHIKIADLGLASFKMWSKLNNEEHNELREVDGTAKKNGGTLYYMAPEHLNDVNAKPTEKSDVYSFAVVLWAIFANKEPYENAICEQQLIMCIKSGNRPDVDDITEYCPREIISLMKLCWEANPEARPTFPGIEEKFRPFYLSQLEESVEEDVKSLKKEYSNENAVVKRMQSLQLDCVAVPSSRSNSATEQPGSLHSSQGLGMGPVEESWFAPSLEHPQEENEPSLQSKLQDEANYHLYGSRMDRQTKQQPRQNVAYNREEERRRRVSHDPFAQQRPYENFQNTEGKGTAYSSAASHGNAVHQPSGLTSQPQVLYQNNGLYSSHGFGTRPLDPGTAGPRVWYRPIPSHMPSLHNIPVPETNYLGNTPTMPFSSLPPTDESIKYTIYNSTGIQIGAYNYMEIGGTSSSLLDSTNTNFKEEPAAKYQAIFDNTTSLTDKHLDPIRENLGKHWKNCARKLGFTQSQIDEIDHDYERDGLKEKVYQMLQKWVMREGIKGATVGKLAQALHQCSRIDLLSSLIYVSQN
UniProt Q13151: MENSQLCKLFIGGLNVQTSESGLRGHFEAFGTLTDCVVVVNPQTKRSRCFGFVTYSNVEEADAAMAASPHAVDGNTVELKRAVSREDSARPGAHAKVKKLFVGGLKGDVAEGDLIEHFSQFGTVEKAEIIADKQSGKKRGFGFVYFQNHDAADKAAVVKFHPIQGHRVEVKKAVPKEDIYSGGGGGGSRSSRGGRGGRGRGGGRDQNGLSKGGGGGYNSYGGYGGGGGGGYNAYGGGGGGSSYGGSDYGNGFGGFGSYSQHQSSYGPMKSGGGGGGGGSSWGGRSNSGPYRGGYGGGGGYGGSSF
UniProt Q0VDF9: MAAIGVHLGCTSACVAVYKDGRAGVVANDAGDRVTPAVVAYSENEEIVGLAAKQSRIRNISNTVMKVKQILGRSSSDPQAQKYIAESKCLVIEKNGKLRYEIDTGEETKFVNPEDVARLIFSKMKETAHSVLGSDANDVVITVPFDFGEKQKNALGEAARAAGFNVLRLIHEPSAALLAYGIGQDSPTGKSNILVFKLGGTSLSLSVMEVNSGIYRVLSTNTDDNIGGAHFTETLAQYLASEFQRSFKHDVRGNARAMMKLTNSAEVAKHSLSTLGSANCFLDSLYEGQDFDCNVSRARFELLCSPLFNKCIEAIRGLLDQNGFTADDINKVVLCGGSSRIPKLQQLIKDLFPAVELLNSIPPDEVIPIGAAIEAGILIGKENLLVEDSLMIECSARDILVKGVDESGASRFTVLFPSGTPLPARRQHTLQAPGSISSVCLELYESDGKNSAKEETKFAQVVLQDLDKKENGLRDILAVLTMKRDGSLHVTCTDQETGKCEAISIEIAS
UniProt Q00839, whole entry: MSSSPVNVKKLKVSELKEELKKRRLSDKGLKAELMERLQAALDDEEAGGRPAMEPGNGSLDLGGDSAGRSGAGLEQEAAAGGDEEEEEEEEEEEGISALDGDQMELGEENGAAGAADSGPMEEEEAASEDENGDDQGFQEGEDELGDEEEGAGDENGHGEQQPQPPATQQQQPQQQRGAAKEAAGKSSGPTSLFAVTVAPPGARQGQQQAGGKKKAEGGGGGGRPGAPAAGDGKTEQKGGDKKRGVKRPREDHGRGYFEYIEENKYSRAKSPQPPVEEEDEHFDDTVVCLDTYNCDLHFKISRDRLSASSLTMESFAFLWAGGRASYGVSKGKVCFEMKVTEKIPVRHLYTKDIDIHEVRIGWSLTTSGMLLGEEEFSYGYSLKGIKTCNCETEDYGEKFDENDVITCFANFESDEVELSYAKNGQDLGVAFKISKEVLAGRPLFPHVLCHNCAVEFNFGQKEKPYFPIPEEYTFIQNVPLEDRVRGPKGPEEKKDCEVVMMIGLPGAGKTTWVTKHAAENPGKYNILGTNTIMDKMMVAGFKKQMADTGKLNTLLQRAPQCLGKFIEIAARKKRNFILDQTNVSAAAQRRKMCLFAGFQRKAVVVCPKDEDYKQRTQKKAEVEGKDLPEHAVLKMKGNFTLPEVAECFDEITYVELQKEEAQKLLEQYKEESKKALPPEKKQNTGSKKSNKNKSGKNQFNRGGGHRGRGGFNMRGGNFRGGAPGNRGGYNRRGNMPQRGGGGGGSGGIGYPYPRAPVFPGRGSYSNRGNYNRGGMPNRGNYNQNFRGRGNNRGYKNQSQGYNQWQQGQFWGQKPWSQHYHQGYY
UniProt Q02083: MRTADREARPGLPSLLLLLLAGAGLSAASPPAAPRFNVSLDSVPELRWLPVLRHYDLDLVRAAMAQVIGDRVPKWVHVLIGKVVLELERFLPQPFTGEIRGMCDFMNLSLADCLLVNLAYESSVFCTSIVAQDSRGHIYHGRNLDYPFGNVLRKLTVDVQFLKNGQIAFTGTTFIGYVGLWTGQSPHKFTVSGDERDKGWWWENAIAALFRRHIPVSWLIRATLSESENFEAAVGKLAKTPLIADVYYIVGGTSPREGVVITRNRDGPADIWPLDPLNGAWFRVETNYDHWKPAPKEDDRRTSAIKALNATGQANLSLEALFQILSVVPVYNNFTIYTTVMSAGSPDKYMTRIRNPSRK
UniProt Q13426: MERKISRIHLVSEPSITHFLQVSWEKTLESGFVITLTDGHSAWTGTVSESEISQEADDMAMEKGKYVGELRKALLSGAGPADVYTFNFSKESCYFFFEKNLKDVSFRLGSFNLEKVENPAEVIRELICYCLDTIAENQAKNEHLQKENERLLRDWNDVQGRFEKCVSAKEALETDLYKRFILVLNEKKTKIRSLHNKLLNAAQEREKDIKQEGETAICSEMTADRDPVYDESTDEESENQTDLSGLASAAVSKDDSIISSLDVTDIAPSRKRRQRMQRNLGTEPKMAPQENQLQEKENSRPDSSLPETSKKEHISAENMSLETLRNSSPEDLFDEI
UniProt Q13283, whole entry, looked up: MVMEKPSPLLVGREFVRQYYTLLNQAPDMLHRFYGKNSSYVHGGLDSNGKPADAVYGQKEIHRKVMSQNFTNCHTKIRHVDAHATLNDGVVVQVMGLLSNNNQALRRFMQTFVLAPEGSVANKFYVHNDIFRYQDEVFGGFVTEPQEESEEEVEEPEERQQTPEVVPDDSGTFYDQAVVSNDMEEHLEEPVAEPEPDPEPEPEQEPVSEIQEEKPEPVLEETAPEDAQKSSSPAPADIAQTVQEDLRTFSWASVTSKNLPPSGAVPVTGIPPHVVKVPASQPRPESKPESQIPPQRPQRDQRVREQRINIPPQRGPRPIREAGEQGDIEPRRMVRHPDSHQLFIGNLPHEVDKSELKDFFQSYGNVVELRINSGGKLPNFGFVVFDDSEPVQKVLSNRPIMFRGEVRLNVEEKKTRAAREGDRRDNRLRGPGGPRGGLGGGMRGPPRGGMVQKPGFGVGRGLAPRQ
UniProt Q00765: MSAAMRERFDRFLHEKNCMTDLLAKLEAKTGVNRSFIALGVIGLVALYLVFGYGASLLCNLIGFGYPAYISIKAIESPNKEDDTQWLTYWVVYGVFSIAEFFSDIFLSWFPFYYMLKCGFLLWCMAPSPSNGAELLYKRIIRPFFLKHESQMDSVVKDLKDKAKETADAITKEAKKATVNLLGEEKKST
UniProt Q13618, whole entry: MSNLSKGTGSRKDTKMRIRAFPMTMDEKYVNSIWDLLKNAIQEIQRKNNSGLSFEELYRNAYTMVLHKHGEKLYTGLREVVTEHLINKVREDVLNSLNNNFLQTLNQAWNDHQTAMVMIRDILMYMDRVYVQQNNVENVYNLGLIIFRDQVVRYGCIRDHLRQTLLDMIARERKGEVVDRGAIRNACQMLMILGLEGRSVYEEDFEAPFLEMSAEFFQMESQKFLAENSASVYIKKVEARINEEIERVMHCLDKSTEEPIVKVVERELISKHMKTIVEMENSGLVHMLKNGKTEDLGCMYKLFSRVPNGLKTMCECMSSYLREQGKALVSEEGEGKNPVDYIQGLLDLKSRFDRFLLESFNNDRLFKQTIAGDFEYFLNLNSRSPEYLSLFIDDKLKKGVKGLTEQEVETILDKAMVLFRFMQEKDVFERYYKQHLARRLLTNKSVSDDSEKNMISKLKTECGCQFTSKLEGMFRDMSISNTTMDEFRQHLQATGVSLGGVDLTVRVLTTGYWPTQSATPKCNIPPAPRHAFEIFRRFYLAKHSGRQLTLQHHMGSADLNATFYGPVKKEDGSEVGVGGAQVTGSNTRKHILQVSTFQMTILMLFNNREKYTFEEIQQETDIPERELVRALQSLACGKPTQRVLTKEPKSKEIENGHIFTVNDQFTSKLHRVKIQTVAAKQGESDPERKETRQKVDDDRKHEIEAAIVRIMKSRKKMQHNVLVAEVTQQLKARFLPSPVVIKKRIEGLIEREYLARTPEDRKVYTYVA
UniProt Q12792, whole entry: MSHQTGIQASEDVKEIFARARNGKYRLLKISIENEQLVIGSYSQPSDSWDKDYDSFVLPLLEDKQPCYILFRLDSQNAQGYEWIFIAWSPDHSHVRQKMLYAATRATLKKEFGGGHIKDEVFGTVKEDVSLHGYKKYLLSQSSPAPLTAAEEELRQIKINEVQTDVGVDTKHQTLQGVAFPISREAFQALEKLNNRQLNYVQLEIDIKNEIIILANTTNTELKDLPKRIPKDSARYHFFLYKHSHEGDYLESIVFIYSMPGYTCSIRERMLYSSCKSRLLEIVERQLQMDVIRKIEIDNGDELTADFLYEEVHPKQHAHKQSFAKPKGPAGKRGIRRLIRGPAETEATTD
UniProt Q07820, whole entry: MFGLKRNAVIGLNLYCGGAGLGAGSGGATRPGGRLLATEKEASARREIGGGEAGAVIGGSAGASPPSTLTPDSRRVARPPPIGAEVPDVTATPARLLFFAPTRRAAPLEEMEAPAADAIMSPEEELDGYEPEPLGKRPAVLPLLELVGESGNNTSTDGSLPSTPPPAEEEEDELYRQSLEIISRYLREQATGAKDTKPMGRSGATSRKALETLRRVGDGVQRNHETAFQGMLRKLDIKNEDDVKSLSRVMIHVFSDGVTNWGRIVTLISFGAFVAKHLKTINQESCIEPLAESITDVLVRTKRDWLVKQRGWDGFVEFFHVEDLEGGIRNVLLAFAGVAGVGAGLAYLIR
UniProt Q13015: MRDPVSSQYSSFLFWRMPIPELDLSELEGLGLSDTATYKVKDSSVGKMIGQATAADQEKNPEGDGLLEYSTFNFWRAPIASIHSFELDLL
UniProt Q02446, whole entry: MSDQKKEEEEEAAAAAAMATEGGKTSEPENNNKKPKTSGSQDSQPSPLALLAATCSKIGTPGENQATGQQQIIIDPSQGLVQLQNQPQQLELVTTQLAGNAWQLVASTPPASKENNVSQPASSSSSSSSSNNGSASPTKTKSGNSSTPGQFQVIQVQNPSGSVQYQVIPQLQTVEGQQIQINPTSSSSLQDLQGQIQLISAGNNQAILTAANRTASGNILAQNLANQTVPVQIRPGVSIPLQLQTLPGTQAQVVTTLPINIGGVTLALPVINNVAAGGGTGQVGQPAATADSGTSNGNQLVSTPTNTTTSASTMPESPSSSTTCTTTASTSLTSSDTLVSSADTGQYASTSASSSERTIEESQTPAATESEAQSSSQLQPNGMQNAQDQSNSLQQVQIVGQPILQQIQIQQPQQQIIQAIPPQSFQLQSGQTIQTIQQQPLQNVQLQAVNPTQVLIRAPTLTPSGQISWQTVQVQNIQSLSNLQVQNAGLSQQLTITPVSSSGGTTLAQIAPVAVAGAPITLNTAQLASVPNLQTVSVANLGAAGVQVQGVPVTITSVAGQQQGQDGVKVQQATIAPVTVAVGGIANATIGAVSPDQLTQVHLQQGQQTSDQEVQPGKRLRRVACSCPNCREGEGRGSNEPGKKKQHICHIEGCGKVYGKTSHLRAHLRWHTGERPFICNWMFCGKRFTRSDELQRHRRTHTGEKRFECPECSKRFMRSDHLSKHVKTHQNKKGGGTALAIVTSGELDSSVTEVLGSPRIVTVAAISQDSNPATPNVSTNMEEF
UniProt Q13884: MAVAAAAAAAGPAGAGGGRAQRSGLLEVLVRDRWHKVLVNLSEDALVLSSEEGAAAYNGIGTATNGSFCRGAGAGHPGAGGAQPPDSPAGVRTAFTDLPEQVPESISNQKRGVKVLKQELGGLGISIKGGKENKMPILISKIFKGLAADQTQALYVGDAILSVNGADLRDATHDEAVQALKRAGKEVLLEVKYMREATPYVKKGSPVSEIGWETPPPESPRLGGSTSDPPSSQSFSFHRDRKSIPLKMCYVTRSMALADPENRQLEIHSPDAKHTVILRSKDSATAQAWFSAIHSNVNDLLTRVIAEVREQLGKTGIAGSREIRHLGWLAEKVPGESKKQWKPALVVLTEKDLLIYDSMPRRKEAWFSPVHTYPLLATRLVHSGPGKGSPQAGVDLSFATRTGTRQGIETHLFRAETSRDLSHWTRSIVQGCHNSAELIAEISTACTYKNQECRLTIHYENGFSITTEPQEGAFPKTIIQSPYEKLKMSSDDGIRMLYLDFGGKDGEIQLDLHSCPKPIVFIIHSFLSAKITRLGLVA

compound: Nc1ncnc2c1ncn2[C@@H]1O[C@H](COP(=O)(O)OP(=O)(O)OP(=O)(O)O)[C@@H](O)[C@H]1O [adenosine triphosphate]; assay: NP40-soluble protein abundance relative to vehicle (solubility fold change) (ratio); higher = more soluble protein in presence of ATP; details: concentration: 0.1mM
In short: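 Crude Jurkat lysate, prepared by Dounce homogenisation, was exposed to eight concentrations from 0.1 to 10 mM for 10 min at room temperature and then 3 min at 37 °C. Solubilisation used 0.8% NP40 with benzonase for 60 min at 4 °C, followed by ultracentrifugation and TMT labelling of the supernatant for LC-MS/MS. After vsn normalisation of intensities, each value is the fold change against the detergent-processed vehicle within each replicate, across three independent experiments.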

Row | Target | NP40-soluble protein abundance
1 | TAF10 (UniProt Q12962) | 1.09 ± 0.049
2 | USP4 (UniProt Q13107) | 1.06 ± 0.063
3 | BYSL (UniProt Q13895) | 0.964 ± 0.067
4 | NSUN2 (UniProt Q08J23) | 1.03 ± 0.064
5 | GBE1 (UniProt Q04446) | 1.05 ± 0.074
6 | Q05GC8 and related entries (UniProt Q96PN7+Q05GC8) | 1.02 ± 0.029
7 | RIPK1 (UniProt Q13546) | 1.05 ± 0.054
8 | HNRNPA0 (UniProt Q13151) | 1.014 ± 0.0077
9 | HSPA14 (UniProt Q0VDF9) | 1.02 ± 0.051
10 | PDAP1 (UniProt Q13442) | 0.852 ± 0.15
11 | PPID (UniProt Q08752) | 1 ± 0.043
12 | UniProt Q01518 and related entries | 0.949 ± 0.038
13 | IK (UniProt Q13123) | 0.977 ± 0.035
14 | UniProt Q00839 and related entries | 0.891 ± 0.17
15 | UniProt Q02083 and related entries | 0.963 ± 0.081
16 | XRCC4 (UniProt Q13426) | 0.992 ± 0.051
17 | SSRP1 (UniProt Q08945) | 1 ± 0.013
18 | MTM1 (UniProt Q13496) | 1.08 ± 0.1
19 | PAK1 (UniProt Q13153) | 0.981 ± 0.025

Row | Target | NP40-soluble protein abundance
20 | CSTF1 (UniProt Q05048) | 1.02 ± 0.028
21 | UniProt Q02543 and related entries | 0.922 ± 0.11
22 | SORD (UniProt Q00796) | 0.997 ± 0.043
23 | UniProt Q06136 and related entries | 0.96 ± 0.11
24 | SNW1 (UniProt Q13573) | 0.97 ± 0.025
25 | G3BP1 (UniProt Q13283) | 1.05 ± 0.03
26 | REEP5 (UniProt Q00765) | 0.889 ± 0.07
27 | UniProt Q13618 and related entries | 1.05 ± 0.098
28 | TWF1 (UniProt Q12792) | 0.989 ± 0.1
29 | MCL1 (UniProt Q07820) | 1.05 ± 0.14
30 | MLLT11 (UniProt Q13015) | 0.855 ± 0.023
31 | UniProt Q13416 | 0.979 ± 0.045
32 | SP4 (UniProt Q02446) | 0.943 ± 0.025
33 | UniProt Q06210 and related entries | 1.03 ± 0.084
34 | UniProt Q13094 and related entries | 0.967 ± 0.031
35 | UniProt Q02809 and related entries | 1.05 ± 0.025
36 | UniProt Q13627-2 | 1.04 ± 0.032
37 | UniProt Q13884 and related entries | 0.999 ± 0.028
38 | FABP5 (UniProt Q01469) | 0.973 ± 0.046

same assay, conditions: concentration: 0.5mM

Row | Target | NP40-soluble protein abundance
39 | TAF10 (UniProt Q12962) | 1.068 ± 0.0054
40 | USP4 (UniProt Q13107) | 1.02 ± 0.028
41 | BYSL (UniProt Q13895) | 1.03 ± 0.033
42 | NSUN2 (UniProt Q08J23) | 1.06 ± 0.041
43 | GBE1 (UniProt Q04446) | 1.05 ± 0.052
44 | Q05GC8 and related entries (UniProt Q96PN7+Q05GC8) | 1.06 ± 0.067
45 | RIPK1 (UniProt Q13546) | 1.04 ± 0.074
46 | HNRNPA0 (UniProt Q13151) | 1.06 ± 0.053
47 | HSPA14 (UniProt Q0VDF9) | 1.02 ± 0.044
48 | PDAP1 (UniProt Q13442) | 0.85 ± 0.18
49 | PPID (UniProt Q08752) | 0.998 ± 0.052
50 | UniProt Q01518 and related entries | 0.978 ± 0.051
51 | IK (UniProt Q13123) | 1.05 ± 0.07
52 | UniProt Q00839 and related entries | 1.04 ± 0.047
53 | UniProt Q02083 and related entries | 0.942 ± 0.094
54 | XRCC4 (UniProt Q13426) | 1.05 ± 0.047
55 | SSRP1 (UniProt Q08945) | 0.981 ± 0.013
56 | MTM1 (UniProt Q13496) | 1.06 ± 0.074
57 | PAK1 (UniProt Q13153) | 1.02 ± 0.043

Row | Target | NP40-soluble protein abundance
58 | CSTF1 (UniProt Q05048) | 1 ± 0.024
59 | UniProt Q02543 and related entries | 0.947 ± 0.15
60 | SORD (UniProt Q00796) | 1.02 ± 0.024
61 | UniProt Q06136 and related entries | 0.981 ± 0.043
62 | SNW1 (UniProt Q13573) | 0.979 ± 0.058
63 | G3BP1 (UniProt Q13283) | 1.06 ± 0.045
64 | REEP5 (UniProt Q00765) | 0.919 ± 0.048
65 | UniProt Q13618 and related entries | 1.04 ± 0.07
66 | TWF1 (UniProt Q12792) | 1.04 ± 0.037
67 | MCL1 (UniProt Q07820) | 0.958 ± 0.044
68 | MLLT11 (UniProt Q13015) | 1.05 ± 0.057
69 | UniProt Q13416 | 0.978 ± 0.081
70 | SP4 (UniProt Q02446) | 0.998 ± 0.06
71 | UniProt Q06210 and related entries | 1.01 ± 0.028
72 | UniProt Q13094 and related entries | 0.97 ± 0.012
73 | UniProt Q02809 and related entries | 1.07 ± 0.022
74 | UniProt Q13627-2 | 1.16 ± 0.062
75 | UniProt Q13884 and related entries | 1.02 ± 0.12
76 | FABP5 (UniProt Q01469) | 0.991 ± 0.038
